Laboratory results published in patent US20190136188A1, “4HPR AND ITS USE IN THE CULTURING OF HEMATOPOIETIC STEM CELLS” (UNIVERSITY HEALTH NETWORK, priority 2016, published 2019).
At least one structure is not confirmed: it was looked up by name or label, or the drawing left a doubt.

Tested on: sorted HSC, MPP or GMP
Test: Colony forming assay (CFC) in methylcellulose
Type: cell-based, human
Method: (A) Dose response of varying [4HPR] in CB at day 3 post-treatment showing 2 uM 4HPR gives the relative half maximal number of viable cells compared to control. All experiments following are at this 4HPR concentration unless otherwise indicated. […] (C) LC/MS was used to profile the ceramide (Cer), dihydroceramide (dhCer), sphingosine (sph), dihydrosphingosine (dhSph), S1P and dihydro-S1P (dhS1P) levels in lin− CB cells cultured for 8 days with control or 4HPR (n=2). […] (D) HSC, MPP, or GMP were sorted into methylcellulose for CFC assays in the presence of control or 4HPR and colonies were blindly scored following 10-11 days for (D) colonies/100 cells and ((E) colony distribution are shown (n=7). (F) Flow cytometry for erythroid (GlyA+) and monocytic (CD14+) markers in live cells from pooled CFC colonies were scored (n=6). (F) Relative number of colonies from CFC assays comparing the effect of 4HPR or ATRA (n=3) on sorted HSC, MPP or GMP. […]
(A) Representative flow cytometry analysis of the primitive hierarchy within the CD34+ fraction of day 8 cultured lin− CB cells after the indicated treatments for CD90 and CD45RA, n=4. […] Statistical significance is calculated via unpaired t-test relative to ctrl (black) or to the presence of absence of 4HPR treatment for UM171 or SR1. […]

## CO[C@H]1C[C@@H]2CC[C@@H](C)[C@@](O)(O2)C(=O)C(=O)N2CCCC[C@H]2C(=O)O[C@H]([C@H](C)C[C@@H]2CC[C@@H](O)[C@H](OC)C2)CC(=O)[C@H](C)/C=C(\C)[C@@H](O)[C@@H](OC)C(=O)[C@H](C)C[C@H](C)/C=C/C=C/C=C/1C [rapamycin]
100 nM Rapamycin, HSC, MPP and GMP, day 11
  cloning efficiency in CFC assays: decreases cloning efficiency
Initial 100 nM rapamycin treatment, HSC or MPP
  relative secondary cloning efficiency after serial replating: increases progenitor function in this in vitro assay for MPP, but not HSC
